Source: PubChem BioAssay AID1347426 (Functional Genomics Laboratory (NCATS/FGL), 2020)
In all, about 31,000 sequences went through this assay and about 1,400 (4.5%) were called active.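 How the source made its calls: active means median seed-adjusted z-score above 1 or below -1; inactive means the rest.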 The list shows a part of the results.

Test: Novel Modifiers of Survival Motor Neuron (SMN) Protein: Gene Identification via Genome-wide siRNA Screen;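 further: luminescence tracks full-length SMN protein made from the SMN2 reporter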
Settings: HEK293T SMN2-luciferase reporter, siRNA knockdown, 72 h; actives lie on both sides
How it was run: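 Each of three siRNAs per gene is reverse-transfected (1 pmol) into reporter HEK293T cells whose luciferase output tracks SMN protein level. After 72 h culture, ONE-Glo luminescence is control-normalized, log10-transformed and MAD-standardized; Common Seed Analysis deprioritizes seed-driven hits.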

Sequence | median seed-adjusted z-score
GUCAGAACCCUGUCUUUUATT against PXMP2 | inactive: -0.444
GAAAAACGAUGAAGGAGUATT against MYO16 | inactive: -0.072
GCAUCCAACCUUAAAUGAUTT against FMO5 | inactive: 0.0069
CAAUAAUGCUCGUCUAUGUTT against DERL2 | inactive: -0.27
GGUACUUUCUUAUUCAACUTT against MTM1 | inactive: 0.406
CUGUUCCAGUUGUGGCUCUTT against KRTAP5-1 | inactive: 0
AGAAAUCCAGGAGAAUGAATT against TERF2IP | inactive: 0.765
GCCCGUUAGUAAACCUGGATT against HTRA1 | inactive: 0.031
CCUAAAACCUCGGGCAGAATT against ATP5I | inactive: -0.871
CUACUAGAUCAGUACCGAATT against MAN2A1 | inactive: -0.397
GAGCUGGGAUGAUAAAGAUTT against AGPAT2 | inactive: 0.38
CCAUUGCCGGCAUUUUUAATT against SLC35C2 | inactive: -0.483
GGUCCAAGGAAGCACCAAATT against EIF2AK4 | inactive: -0.188
GCACUUACAUGUGGAGAUATT against LEFTY1 | inactive: 0.383
CCGUUAGCCUGAUCAUCUUTT against DPM2 | inactive: -0.419
GGUUUGCCCUAAUCCGUCATT against TAF15 | inactive: 0.357
CAAGCUUUGGGAACGAUCATT against PHF21B | inactive: 0.327
GCAAGAUCCUCUCUAAUAATT against GSS | inactive: 0.122
GGGACUCAUUGCUAACCCATT against TNPO3 | inactive: 0.577
GGAGUCUACUUUACCGGUATT against BPIL2 | inactive: -0.63
GAUGAGAAAUAUUCGAUUATT against SPAST | inactive: 0.0703
AGAGGAAGAUAGAUUUUCUTT against PFDN5 | inactive: 0.562

Part of the list above, in CSV form.
Sequence,median seed-adjusted z-score
GUCAGAACCCUGUCUUUUATT against PXMP2,inactive: -0.444
GAAAAACGAUGAAGGAGUATT against MYO16,inactive: -0.072
GGUACUUUCUUAUUCAACUTT against MTM1,inactive: 0.406
CUGUUCCAGUUGUGGCUCUTT against KRTAP5-1,inactive: 0
CCGUUAGCCUGAUCAUCUUTT against DPM2,inactive: -0.419

Further records follow.

Sequence | median seed-adjusted z-score
GCAACAGCAUUGUCCGUGUTT against LRRN2 | inactive: 0.324
CGGUGGAUAACGACAAGAATT against RGN | inactive: 0.132
AAGACAGGCUGAUCAACUATT against SPATA20 | inactive: 0
CAUCCAUAAUUGGUGUAAATT against KIF20B | inactive: 0
GGCUAAGCUUGUACAAUAATT against CIITA | inactive: -0.109
UGAGGACAACUACCAGUUUTT against FCN2 | inactive: 0.281
CUGUAUGGGUGGUCAAUCATT against ABCA1 | active: -1.27
GAUUGAAGGAUUUGAGGUATT against PPP1R7 | inactive: 0.0505
GGUGACUUCUUGCAUAGUATT against COL4A3BP | inactive: 0.0391
CCUGAAGACUCAAGACCAATT against CFB | inactive: 0.132
CCUUGCUCCUGUUCACAAUTT against SPRY1 | inactive: 0.642
GAACAAUCAUUGCAUCGGATT against CPB2 | inactive: -0.62
CAAAGUUGAUCACAGUAAATT against RHEB | inactive: -0.387
GGAUCGCUCGUCUCUGGUATT against KLK4 | inactive: 0.437
GAGGUGAAAUCAAGACUCATT against P4HB | inactive: -0.0514
GCAGAGACACCUUGAAGUATT against GAD1 | inactive: 0.101
GAGUUCACCCAGAUCGAAATT against CHMP6 | active: -1.81
GGCUAACAAUUUGUCCAGUTT against SEC22B | inactive: -0.106
CUCCUGAUGUUGCUAGUAUTT against MLL3 | inactive: -0.248
GCAGAACUGUAGUCUGGAATT against UQCRC1 | inactive: -0.284
AAAUGGGUGUUAAUAUAGUTT against FABP2 | inactive: 0
CAACAUCCGUGCUCUGAGATT against ASB10 | inactive: 0

Sequence | median seed-adjusted z-score
CCAUACCUAUGUCAGAAGATT against SLC6A15 | inactive: 0.0939
CCGAGUCUGUCAUUCGAUUTT against TIPARP | inactive: 0.372
CCAGAGUUCCUAUCUCAUATT against ZNF774 | inactive: -0.0834
GACAUUAUAGUGUCAAGAATT against SLC24A2 | inactive: 0.136
AGAUACCAAUGGAUCAGAUTT against MAP3K7 | inactive: -0.23
CGAUCUCACGGAUACAGCATT against TSTA3 | inactive: 0.155
GUACUUAUCCAGAAGCGAATT against PREPL | inactive: -0.459
GAACUGUCCUGGAUUGUGATT against BDH2 | inactive: -0.242
CAUAGACCACCACAAGAUATT against S100A7L2 | inactive: 0.283
GACAAUCAGCUGACAAUUATT against CDC6 | inactive: 0.0196
AGACACCACAUGUACACCATT against DPEP3 | inactive: 0.95
CAGUCACACUUUCUGGAAATT against PNLIPRP2 | inactive: -0.022
CACUUGCACUAGCAGCGAATT against NUBPL | inactive: 0.105
AGAACCAGCUGACAAUCGATT against PITPNM2 | inactive: 0.275
GCAUUCACCAAGAUAUAAATT against ACBD5 | inactive: -0.118
GCUUAUUACCCGCUCAAAUTT against PRDM13 | inactive: 0
GGUGGUCAUUAGCUUUGAATT against WNT5B | inactive: 0.72
CCAAAAGGAUUGAUUAGAATT against IFI16 | inactive: -0.0178
CCUUACAAGUGUUCUGAAUTT against ZNF691 | inactive: 0.28
GCUUGUACAACAUUACUCATT against FYN | inactive: -0.0476
GAUGUACCUUGAUACAGUATT against IDH3A | inactive: 0.137
CACCUUAACUUCAUCAACATT against SCN4A | inactive: -0.681

Sequence | median seed-adjusted z-score
GCUCAAGAGUUAGACCCUUTT against MOCS3 | inactive: -0.496
GAAAGAACGUGUGCAAAAATT against BTN2A1 | inactive: 0.302
GGACGACAGAUCUAUGUAATT against CASK | inactive: -0.422
GGAUCUCACAAAAACUCGATT against SLC25A27 | inactive: 0.0916
CCAGAGUUAUAUAAGCAGATT against SYT9 | inactive: 0.0419
GCCCAUCACCUCUUCAUGATT against RAMP1 | inactive: -0.031
CGACCAUUGGAGAUGUUAATT against SCML2 | inactive: -0.538
CCAUGUGGUUUAUCCGUGATT against ZDHHC3 | inactive: 0.229
GGAGAUCUCUCGUCUCAAUTT against KCNH4 | inactive: -0.769
CCAGGAUCUCUACACUGUATT against ATP6V0A2 | inactive: 0.236
GGCAGAUUAGUUUACCGAUTT against AGL | inactive: -0.385
CGCUGCAGGUUGUUCGAUATT against P4HTM | inactive: -0.257
GAACAAUGAGUAUAUCCUATT against PPP2R5B | inactive: 0.237
CACUGGUACUCUUUCUAAUTT against NQO2 | inactive: -0.0723
GAACUAUCAGAGCAGUUUUTT against LONP2 | active: 1.52
GACUUAGGAUGGAACCCUUTT against ZNF408 | inactive: 0.00381
CGCUCUAAAUAAUUGCAAUTT against SLC9A3R2 | inactive: 0.165
GGACAACCGUUGCCUCAGATT against DLC1 | inactive: -0.0296
CCCUUUUGCCUGUCAAUGATT against PLA1A | inactive: 0.197
CCCUCGGAAGCACAAGUUUTT against TEF | inactive: 0
GGAGCUACAACCCACAGUATT against PLA2G5 | inactive: 0.0601
CGGUACUGUUGUUGAAUCATT against ZNF385B | inactive: 0.446

Sequence | median seed-adjusted z-score
CGAGCACAAGGCAACAAGATT against GNL3L | inactive: 0.568
GGUGACUACUUGUAUCUGATT against NOX5 | inactive: 0.178
GGCUGGAAAAUUAUCCAUATT against TM9SF1 | inactive: 0.14
GGACCGACAUUUGACUAUUTT against B4GALT3 | inactive: -0.138
GGAUGUGAAGUGUGCUAAUTT against GRM8 | inactive: 0.129
GGAUUUGGAUUCGUUCAGCTT against SOX11 | inactive: 0.02
CCUCAGAGCUCAAUCAUCUTT against CD5 | inactive: 0.0416
CAGUGAAGAUAAAAUUCAATT against CRIP3 | active: 1.7
GAGGCAAAAUUAUACGGCATT against GRPEL1 | inactive: 0
GGAGAGAGCUCUCACAUCUTT against PPT1 | inactive: 0.727
CCUCCGGAACAAGAACUAATT against ZNF397 | inactive: -0.107
GGUCACCACUUGCAAGCUATT against ANG | inactive: -0.481
CCAACAACAUUUCAGACAATT against TBX3 | inactive: 0
CAAGUGUCUAUGUAACGAATT against FBN2 | inactive: 0.373
GCGUGGACUUUGAUAUUGATT against EDEM2 | inactive: 0.36
GGAUUGAAGAGAAGGCUAATT against ZDHHC6 | inactive: 0.199
GGAAUUUGCCUGCUAAUCATT against SEC61A1 | inactive: 0.312
CCUUAGCCUGUUCUAUUCATT against TIMP2 | inactive: 0.0444
GGACAUUCACAGUUUCGAATT against ATP9B | inactive: 0
CAGACAGUAUGUUUACGAUTT against RNASEH1 | inactive: -0.0205

Another view of part of the listing above.
Sequence	median seed-adjusted z-score
GGUGACUACUUGUAUCUGATT against NOX5	inactive: 0.178
CAGACAGUAUGUUUACGAUTT against RNASEH1	inactive: -0.0205
